Consider 67 sequences from PubChem BioAssay AID1347423 (Functional Genomics Laboratory (NCATS/FGL), 2020).

Screen size: about 52,000 sequences; about 210 (0.4%) were called active.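 The calls were made as follows: active = gene whose silencing raises cell survival under the drug, median off-target-corrected z-score across its silencing RNAs 2 or more; inactive = the rest.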 Some of the results follow.

The nature of the experiment: Resistance to Poly (ADP-Ribose) Polymerase inhibitor: Gene Identification via Genome-wide siRNA Screen. The note with it: mouse BRCA2 R2336H ES cells, olaparib, CellTiter-Glo viability; hits give high values. The procedure, abridged: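 Mouse BRCA2 R2336H ES cells were reverse-transfected with siRNA (20 nM final), treated at 48 h with 500 nM olaparib, and read by CellTiter-Glo after 72 h. Scores: MAD-based z per siRNA, median per gene, seed off-target correction.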
On the technique in general: Cellular ATP, detected with luciferase, serves as a proxy for viable cell number.
With GGCCUGGAUGGAAAUUUGCTT against Fabp4, the z-score is inactive: 0.492.
As for CCAUUAAUCCCUGGAGCGATT against Guca1a, the z-score was inactive: -1.58.
CCAAAUGACAAAAAACCUUTT against Zfp217: the z-score was inactive: 1.52.
As to GCAUAUCCAAACAUGUGAUTT against Rnase11, the z-score is inactive: -0.774.
As to GGCACUUAAGGAAAUUGGGTT against Bloc1s1, the z-score was inactive: -1.97.
Under GGAGCUGCUUUCAAAGCUGTT against BC006583 stands inactive: -0.222; under GGUUCUUUCCAAACAAGAGTT against Evc, inactive: 0.132; under CGGAAAUUGACCUACAAUATT against Gtf3c5, inactive: -1.35.
Under GGCUACUGAUUAAAUGCUATT against Ermap stands inactive: -0.869; under GGAGCUUCUUGACCUCGUGTT against Frmd4a, inactive: 0.227; under GGAUUGAAGCAGGCAGCUUTT against Purb, inactive: 2.69.
Under CCCAAGAGCAAACUAUGAATT against Sult3a1 stands inactive: 1.37; under GCACAAUUUCAUACCUUGGTT against Olfr490, inactive: 0.348; under “GCCUGACUCUAGCUGUCAATT against 2010001M09Rik”, inactive: -1.98.
Turning to GCAACACGUCUUCUUUGCATT against Hadhsc, the z-score was inactive: 2.17.
Under CCCUUUCAUUUACUCGUUGTT against Olfr787 stands inactive: 0.183; under CCACGAGUUGCUGUCGUCATT against Adam22, inactive: -1.63; under GCUGUGAUGUUCAUUGAUATT against Oas2, inactive: -0.0111.
With “GGUCCAUAUGUCUUUUUUCTT against 9430097D07Rik”, the z-score is inactive: -0.905.
Under GGCUCGUCAGUUCUAAGUUTT against Cxcl10 stands inactive: -1.82; under GCCGUUCCACUCUUGGUAATT against Ranbp6, inactive: -1; under GGCUGUGAAUCUGAAGAGCTT against Chrna6, inactive: -0.24.
Under GGACUGUCAAUACUCUUUUTT against Gpr33 stands inactive: -2.21; under GGGAUGUGGAAAGAAUCCATT against Ckn1, inactive: 0.913.
Under GCAGGGCUUUAUAGGUUGUTT against BC028278 stands inactive: 1.53.
As to GGUUUUAGAGGAGUUCUCCTT against Pvrl1, the z-score is inactive: 1.19.
Under “GGAUGAAUAAGGACAGAUUTT against 1700048E23Rik” stands inactive: -1.2; under GGAGCAGCAGAAGAUCCUUTT against Olfr47, inactive: 1.92; under GCAUAAUGCUGUCACCCUCTT against Jtv1, inactive: -0.496.
Under GCUGCCGGAAAAGUGUCUATT against Lrrn3 stands inactive: 0.397; under CCGAAUUUUUCAAUGGCAATT against Pzp, inactive: 0.691; under GCUGGACAAACGAUGGUCATT against Wdr10, inactive: 0.725.
Under AGACAUCGUGCGAUAUUUGTT against Cdkn2a stands inactive: -0.826; under GGUUUACCUCUAUAAGAAUTT against Tas2r106, inactive: -0.335; under “GGGAAAUGGCUCAUACUGGTT against 2210010C04Rik”, inactive: -0.608.
“GCUCAGACCAUAGUUUCUATT against A930002I21Rik”: the z-score is inactive: 1.53.
Consider GGAUGUUAUAAGAUUGCGUTT against Rnf170, for which the z-score is inactive: -0.646.
Regarding GGCAUUUAGACUUUUUUGATT against Daam1, the z-score is inactive: 1.05.
On to GGUGUUUAAAUUCAUCUACTT against AU024582, for which the z-score is inactive: 0.0454.
As to “GGAUCUUGAGUUGGAGUCCTT against 4930579G22Rik”, the z-score was inactive: 1.
On to GGUUUUGAGAAGAUAACUCTT against Zfp236, for which the z-score is inactive: 0.912.
On to “CCUUGUUAUAGACCAACCUTT against 2310034C09Rik”, for which the z-score was inactive: -0.376.
As for CGCAGGAUACAGCUAUAUUTT against Elovl4, the z-score is inactive: -0.91.
GGAAUCAGUGGUACCAAAUTT against Sorcs1: the z-score is inactive: -2.92.
Under CCAGUCCAUUGAAUAGUUCTT against Papola stands inactive: 0.832; under GCUAUGGACCUCAGCAUAGTT against Inpp5e, inactive: -1.86; under GGUGUGUUCAGGAGUUGAUTT against Col12a1, inactive: 1.15.
Turning to “GCGGUGAUUUCGUCUAUUUTT against D14Ertd436e”, the z-score was inactive: -0.623.
Turning to CCUUUAUUGGUGUUGGCCGTT against Apbb3, the z-score was inactive: 0.193.
On to CUCGCUGCCCGGCGGCCUCTT against Sox3, for which the z-score was inactive: 0.119.
Consider GGACGGUCUUGAAAAUGGATT against Creld1, for which the z-score is inactive: 0.19.
Take GGAUUUCAAAGUGCUUUGCTT against Kifap3: the z-score was inactive: 0.243.
Regarding “CGUUGUCAAAAGGACCCAUTT against D7Ertd458e”, the z-score is inactive: -0.695.
With GGUUAUCAGAAGUGGAGAGTT against Ingaprp, the z-score is inactive: -1.81.
Turning to GGGCAAGUAUGGGCAGUUCTT against Ppp1ca, the z-score was inactive: -0.683.
Under GGUCUCUGGUAAGAAGAGCTT against Zfp276 stands inactive: 1.71; under “GCAUUAUAUGGCUUCAUAUTT against 5730414C17Rik”, inactive: -2.78.
Under GGAGAAGUGGUAGAAACUGTT against Brd8 stands inactive: -1.65.
GGCAGCUAAGUACGUUCAUTT against Gba: the z-score is inactive: 0.45.
GCGACUCCCACAUACUCAGTT against Muc19: the z-score was inactive: -2.66.
Under GGCCAAAAAAGGGUAUAAGTT against Rad18 stands inactive: 0.265; under GGAAAAGGCAAUCGUUUCUTT against Gtpbp5, inactive: 0.445; under CCUUAUAGUGCUGAGGAAATT against Orm1, inactive: -1.34.
For GCUAUGCUACUGGUUGUGGTT against Olfr1351, the z-score is inactive: -0.226.
Under “GGGAAGCAACAGUAAACAUTT against 2310043N13Rik” stands inactive: 1.78; under “GGUUGUGAUAUUAGGUCCGTT against 1190002A17Rik”, inactive: 0.788; under CGAGGUACAUCCCAAGCAATT against Ptk9l, inactive: 0.544.
